Data from patent publication US11320422B2, “Inhibition of protein degradation for improved production” (LONZA LTD, priority 2016, dated 2022).
Some results were stated once for a whole list of compounds, not compound by compound. For at least one compound, name, drawing or mass did not settle the structure.

Tested on: recombinant CHO antibody producing cell line (CH0149)
Test: Initial assessment of inhibitor concentrations on recombinant CHO cell line growth (viable cell number, culture viability, ViCell)
Type: cell-based, Chinese hamster
Conditions: 0.5 μM MG-132, 0.05 μM epoxomicin, 10 μM eeyarestatin I
Experimental: 96 deep well plates (Nunc) were seeded at 4×10^6 cells/ml at 300 μl per well for analysis of proteasome and ERAD inhibitors. Triplicate wells were prepared for each inhibitor for each of the panel of cell lines. […] 100 μl of the well volume was combined with 900 μl PBS and a cell count performed using the ViCell apparatus. The remaining 200 μl was centrifuged at 1000 rpm for 5 minutes and the supernatant and pellet stored at −20° C. prior to further analysis.
Initial assessment was performed across two experiments using one model recombinant CHO antibody producing cell line (CH0149) to determine the appropriate concentrations of each inhibitor to use for the assessment of the full panel (FIGS. 1A-1C and 2A-2F).

## CC1(C)C(N(O)C(=O)Nc2ccc(Cl)cc2)N(c2ccc(Cl)cc2)C(=O)N1CC(=O)N/N=C/C=C/c1ccc([N+](=O)[O-])o1 (stereo not shown) [eeyarestatin I]
  reduction of cell concentration and culture viability compared to control: 30-60%
